Experimental data as given in the supplement of paper PMC6411743.
± gives the standard deviation of the averaged measurements. The list shows a part of the results.

The chains behind the UniProt entries cited, without tags or fusion partners. Where a name states a change or a piece, a line headed by the entry shows the natural chain unless it says otherwise.
UniProt Q8WX93: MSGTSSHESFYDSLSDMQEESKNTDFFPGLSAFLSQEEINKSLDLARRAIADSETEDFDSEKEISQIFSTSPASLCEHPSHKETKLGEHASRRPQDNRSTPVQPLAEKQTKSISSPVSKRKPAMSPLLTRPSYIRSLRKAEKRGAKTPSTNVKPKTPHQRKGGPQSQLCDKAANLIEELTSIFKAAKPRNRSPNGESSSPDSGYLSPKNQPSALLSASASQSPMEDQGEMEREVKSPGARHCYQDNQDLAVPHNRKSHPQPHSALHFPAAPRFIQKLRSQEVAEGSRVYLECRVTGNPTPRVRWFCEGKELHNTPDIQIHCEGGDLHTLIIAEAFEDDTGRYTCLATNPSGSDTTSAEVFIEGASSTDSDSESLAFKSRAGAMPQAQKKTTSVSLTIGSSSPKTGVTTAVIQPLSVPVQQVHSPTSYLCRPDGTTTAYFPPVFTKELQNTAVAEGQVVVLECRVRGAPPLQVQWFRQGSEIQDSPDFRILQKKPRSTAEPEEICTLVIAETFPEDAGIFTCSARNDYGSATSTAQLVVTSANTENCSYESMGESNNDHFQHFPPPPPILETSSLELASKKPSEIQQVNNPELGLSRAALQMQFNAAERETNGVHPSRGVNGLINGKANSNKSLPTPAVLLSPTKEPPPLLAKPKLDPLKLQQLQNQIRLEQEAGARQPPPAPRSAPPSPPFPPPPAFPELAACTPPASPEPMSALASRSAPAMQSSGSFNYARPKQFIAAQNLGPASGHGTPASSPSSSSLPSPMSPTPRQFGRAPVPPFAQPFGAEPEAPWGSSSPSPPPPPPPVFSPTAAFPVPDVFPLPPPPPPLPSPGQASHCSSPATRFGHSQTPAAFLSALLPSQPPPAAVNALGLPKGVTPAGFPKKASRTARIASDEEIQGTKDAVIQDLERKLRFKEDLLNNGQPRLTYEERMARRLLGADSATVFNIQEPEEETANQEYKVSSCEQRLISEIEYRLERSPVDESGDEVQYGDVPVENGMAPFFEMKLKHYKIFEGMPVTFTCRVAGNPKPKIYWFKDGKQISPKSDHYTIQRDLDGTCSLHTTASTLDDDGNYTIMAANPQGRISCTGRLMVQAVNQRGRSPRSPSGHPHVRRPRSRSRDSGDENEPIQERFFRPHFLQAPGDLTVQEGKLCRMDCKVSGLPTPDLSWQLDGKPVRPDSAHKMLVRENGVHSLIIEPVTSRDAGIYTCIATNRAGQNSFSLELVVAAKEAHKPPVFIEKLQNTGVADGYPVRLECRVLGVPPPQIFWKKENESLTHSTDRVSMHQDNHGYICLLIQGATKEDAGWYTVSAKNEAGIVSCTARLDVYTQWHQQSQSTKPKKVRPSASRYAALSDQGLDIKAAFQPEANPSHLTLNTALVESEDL
UniProt Q96JK2, whole entry: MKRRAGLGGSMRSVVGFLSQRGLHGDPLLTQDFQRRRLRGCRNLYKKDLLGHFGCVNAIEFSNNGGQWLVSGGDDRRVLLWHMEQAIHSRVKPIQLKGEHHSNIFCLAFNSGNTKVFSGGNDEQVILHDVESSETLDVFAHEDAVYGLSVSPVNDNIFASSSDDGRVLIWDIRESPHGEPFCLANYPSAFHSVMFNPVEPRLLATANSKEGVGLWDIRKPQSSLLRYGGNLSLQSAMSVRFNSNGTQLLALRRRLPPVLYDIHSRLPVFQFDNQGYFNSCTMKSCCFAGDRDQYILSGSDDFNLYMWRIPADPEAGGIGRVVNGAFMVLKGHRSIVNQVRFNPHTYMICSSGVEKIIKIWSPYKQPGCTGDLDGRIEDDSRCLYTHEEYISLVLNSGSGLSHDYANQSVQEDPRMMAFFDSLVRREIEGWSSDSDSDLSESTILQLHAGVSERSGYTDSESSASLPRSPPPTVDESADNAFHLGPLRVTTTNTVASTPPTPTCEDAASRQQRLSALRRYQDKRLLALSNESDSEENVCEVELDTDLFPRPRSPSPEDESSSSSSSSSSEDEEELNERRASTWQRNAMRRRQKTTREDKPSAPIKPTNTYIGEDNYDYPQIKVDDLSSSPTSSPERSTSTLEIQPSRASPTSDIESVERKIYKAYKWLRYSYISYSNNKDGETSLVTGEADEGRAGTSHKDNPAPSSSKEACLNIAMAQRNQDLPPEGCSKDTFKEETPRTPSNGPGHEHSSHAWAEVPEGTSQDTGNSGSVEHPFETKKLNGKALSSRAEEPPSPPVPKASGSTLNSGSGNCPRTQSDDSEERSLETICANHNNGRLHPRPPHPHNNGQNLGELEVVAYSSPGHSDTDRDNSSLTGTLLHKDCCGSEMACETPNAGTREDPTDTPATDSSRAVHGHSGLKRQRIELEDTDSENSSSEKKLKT
UniProt Q92766: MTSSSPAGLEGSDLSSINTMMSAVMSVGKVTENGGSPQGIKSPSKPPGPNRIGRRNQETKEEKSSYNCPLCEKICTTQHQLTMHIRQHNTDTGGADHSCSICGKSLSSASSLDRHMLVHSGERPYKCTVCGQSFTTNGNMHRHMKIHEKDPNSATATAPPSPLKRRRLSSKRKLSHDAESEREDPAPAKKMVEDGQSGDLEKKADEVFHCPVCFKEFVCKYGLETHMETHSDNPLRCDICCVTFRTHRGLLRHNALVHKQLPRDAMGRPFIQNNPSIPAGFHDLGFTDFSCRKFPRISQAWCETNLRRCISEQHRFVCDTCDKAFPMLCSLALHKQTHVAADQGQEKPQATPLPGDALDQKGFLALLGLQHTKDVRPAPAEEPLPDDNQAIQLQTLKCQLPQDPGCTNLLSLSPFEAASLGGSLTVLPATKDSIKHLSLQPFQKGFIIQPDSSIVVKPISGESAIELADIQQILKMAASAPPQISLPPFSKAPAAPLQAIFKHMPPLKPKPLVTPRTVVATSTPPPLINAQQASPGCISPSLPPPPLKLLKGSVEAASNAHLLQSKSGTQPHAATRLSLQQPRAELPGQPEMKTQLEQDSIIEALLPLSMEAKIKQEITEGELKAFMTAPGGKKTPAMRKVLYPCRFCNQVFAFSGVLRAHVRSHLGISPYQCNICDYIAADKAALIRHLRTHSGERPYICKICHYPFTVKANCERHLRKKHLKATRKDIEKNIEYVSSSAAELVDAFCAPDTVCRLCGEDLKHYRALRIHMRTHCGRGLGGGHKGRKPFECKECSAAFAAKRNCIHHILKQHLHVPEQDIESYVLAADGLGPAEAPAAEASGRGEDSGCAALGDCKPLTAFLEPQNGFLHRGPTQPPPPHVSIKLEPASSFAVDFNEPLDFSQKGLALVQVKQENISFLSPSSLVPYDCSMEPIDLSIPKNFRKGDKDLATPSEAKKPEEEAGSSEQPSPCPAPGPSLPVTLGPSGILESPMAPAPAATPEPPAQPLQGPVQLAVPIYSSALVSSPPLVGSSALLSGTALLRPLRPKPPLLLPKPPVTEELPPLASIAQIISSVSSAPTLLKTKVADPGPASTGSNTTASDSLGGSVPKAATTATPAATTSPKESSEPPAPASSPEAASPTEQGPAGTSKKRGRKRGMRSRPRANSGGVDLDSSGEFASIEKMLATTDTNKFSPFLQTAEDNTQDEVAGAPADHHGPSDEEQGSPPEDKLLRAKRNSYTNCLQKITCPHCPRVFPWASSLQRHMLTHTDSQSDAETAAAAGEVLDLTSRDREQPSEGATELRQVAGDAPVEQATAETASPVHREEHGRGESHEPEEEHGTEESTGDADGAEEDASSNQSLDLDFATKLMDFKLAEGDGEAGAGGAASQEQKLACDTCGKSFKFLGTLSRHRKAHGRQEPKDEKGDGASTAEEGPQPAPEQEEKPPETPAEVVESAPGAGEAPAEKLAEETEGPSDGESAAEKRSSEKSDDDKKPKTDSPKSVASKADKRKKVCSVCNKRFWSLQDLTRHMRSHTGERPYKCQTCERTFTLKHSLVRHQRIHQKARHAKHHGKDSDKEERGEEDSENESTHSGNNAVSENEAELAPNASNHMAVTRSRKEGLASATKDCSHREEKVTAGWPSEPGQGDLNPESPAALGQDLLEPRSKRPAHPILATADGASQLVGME
UniProt Q96A47: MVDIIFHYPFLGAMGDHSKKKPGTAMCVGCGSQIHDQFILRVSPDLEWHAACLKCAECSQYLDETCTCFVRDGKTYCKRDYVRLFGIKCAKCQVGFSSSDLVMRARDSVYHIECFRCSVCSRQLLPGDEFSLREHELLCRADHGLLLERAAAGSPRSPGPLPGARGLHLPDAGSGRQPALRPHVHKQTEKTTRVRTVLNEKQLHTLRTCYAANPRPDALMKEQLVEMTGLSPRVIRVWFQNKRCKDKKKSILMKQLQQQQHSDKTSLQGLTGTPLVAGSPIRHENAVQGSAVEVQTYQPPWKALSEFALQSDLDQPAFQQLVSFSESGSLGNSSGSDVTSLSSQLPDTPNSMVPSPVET
UniProt Q96EY1: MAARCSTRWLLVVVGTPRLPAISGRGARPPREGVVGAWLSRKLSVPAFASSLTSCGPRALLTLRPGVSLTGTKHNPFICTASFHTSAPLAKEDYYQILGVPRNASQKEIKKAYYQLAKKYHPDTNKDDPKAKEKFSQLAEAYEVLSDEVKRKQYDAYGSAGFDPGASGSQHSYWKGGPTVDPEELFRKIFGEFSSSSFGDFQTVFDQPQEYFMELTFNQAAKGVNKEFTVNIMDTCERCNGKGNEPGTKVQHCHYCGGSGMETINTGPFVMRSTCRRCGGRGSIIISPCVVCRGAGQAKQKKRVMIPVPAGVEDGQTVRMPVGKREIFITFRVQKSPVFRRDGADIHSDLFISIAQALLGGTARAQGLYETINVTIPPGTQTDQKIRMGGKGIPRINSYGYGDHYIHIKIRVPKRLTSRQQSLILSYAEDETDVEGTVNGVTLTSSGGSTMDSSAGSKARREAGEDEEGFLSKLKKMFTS
UniProt Q8WVM0: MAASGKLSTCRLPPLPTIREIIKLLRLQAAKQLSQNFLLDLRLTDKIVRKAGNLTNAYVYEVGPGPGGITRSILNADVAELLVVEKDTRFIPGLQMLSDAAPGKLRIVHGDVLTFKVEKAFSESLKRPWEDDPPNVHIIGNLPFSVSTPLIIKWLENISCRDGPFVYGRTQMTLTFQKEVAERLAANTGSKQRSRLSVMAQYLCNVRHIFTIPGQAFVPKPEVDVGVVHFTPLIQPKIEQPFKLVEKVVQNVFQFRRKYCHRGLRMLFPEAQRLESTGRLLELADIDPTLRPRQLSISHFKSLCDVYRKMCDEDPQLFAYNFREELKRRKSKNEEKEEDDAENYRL
UniProt Q8WWY3: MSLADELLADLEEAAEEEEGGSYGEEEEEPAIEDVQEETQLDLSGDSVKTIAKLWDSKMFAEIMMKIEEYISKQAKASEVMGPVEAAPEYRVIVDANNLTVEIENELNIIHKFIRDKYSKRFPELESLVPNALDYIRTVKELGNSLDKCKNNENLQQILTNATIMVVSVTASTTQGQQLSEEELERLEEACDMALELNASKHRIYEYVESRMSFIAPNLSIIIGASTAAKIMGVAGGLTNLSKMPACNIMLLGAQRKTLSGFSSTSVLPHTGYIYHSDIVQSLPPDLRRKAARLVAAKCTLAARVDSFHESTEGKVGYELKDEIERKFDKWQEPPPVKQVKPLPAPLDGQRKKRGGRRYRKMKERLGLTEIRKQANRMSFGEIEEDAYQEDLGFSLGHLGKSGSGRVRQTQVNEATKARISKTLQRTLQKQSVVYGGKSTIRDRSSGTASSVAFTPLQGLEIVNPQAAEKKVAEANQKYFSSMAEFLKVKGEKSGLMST
UniProt Q96EB1: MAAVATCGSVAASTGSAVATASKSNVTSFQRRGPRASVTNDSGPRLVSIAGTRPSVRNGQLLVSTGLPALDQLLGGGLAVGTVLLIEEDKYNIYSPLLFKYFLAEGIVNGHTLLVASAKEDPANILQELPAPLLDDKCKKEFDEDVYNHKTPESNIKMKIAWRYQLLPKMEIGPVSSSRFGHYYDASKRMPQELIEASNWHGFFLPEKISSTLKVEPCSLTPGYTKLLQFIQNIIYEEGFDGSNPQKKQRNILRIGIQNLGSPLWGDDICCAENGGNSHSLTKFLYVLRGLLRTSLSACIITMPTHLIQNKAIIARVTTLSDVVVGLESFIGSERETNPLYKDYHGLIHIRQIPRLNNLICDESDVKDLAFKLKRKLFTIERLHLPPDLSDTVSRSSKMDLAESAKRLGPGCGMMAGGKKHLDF
UniProt Q96CS3: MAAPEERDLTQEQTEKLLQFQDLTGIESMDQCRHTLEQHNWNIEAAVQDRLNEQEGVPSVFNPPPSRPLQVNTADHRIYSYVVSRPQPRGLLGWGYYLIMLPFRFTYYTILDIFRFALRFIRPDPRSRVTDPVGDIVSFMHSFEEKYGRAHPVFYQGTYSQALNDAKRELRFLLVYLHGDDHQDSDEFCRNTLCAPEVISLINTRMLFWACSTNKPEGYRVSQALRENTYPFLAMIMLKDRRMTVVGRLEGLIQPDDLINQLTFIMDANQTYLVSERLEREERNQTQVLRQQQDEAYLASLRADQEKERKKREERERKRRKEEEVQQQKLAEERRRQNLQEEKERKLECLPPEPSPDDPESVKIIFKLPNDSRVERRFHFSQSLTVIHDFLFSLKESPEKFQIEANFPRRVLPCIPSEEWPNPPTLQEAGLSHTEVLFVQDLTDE

Compound: Nc1nc2c(ncn2[C@@H]2O[C@H](COP(=O)(O)OP(=O)(O)OP(=O)(O)O)[C@@H](O)[C@H]2O)c(=O)[nH]1 [guanosine triphosphate]
Experiment: NP40-soluble protein abundance relative to vehicle (solubility fold change) (ratio); higher = more soluble protein in presence of GTP
Procedure, shortened: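 Jurkat crude lysate (Dounce-homogenised) was treated with eight concentrations from 0.1 to 10 mM for 10 min at room temperature, then 3 min at 37 °C. It was solubilised with 0.8% NP40 and benzonase (60 min, 4 °C) and ultracentrifuged, and the supernatant was TMT-labelled for LC-MS/MS. Intensities were vsn-normalised, and the value is the fold change against the NP40-processed vehicle per replicate, from three independent experiments.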

Target	NP40-soluble protein abundance (concentration: 0.1mM)	NP40-soluble protein abundance (concentration: 0.5mM)	NP40-soluble protein abundance (concentration: 1mM)	NP40-soluble protein abundance (concentration: 2mM)	NP40-soluble protein abundance (concentration: 4mM)	NP40-soluble protein abundance (concentration: 6mM)	NP40-soluble protein abundance (concentration: 8mM)	NP40-soluble protein abundance (concentration: 10mM)
UniProt Q8WX93 and related entries	1 ± 0.064	0.977 ± 0.044	1.02 ± 0.053	0.958 ± 0.038	0.956 ± 0.055	0.933 ± 0.02	0.971 ± 0.051	0.9261 ± 0.0074
Sirt1 (UniProt Q96EB6)	1.01 ± 0.016	0.994 ± 0.039	1.02 ± 0.039	0.965 ± 0.036	0.937 ± 0.072	0.956 ± 0.056	0.944 ± 0.022	0.964 ± 0.027
UniProt Q8WVQ1 and related entries	0.964 ± 0.072	0.96 ± 0.081	0.9177 ± 0.0053	0.908 ± 0.035	0.929 ± 0.079	0.898 ± 0.026	0.918 ± 0.11	0.927 ± 0.097
ABHD14B (UniProt Q96IU4)	0.881 ± 0.17	0.853 ± 0.16	0.822 ± 0.13	0.791 ± 0.096	0.741 ± 0.096	0.743 ± 0.096	0.746 ± 0.13	0.75 ± 0.12
UniProt Q96GN5 and related entries	1.03 ± 0.018	1.05 ± 0.025	1.1 ± 0.014	1.186 ± 0.0088	1.37 ± 0.089	1.46 ± 0.15	1.5 ± 0.093	1.46 ± 0.046
UniProt Q96BN8	1.028 ± 0.0021	0.983 ± 0.054	0.914 ± 0.018	0.916 ± 0.073	0.892 ± 0.045	0.855 ± 0.051	0.846 ± 0.058	0.854 ± 0.057
UniProt Q96JJ7	1.03 ± 0.048	1.01 ± 0.036	0.961 ± 0.037	0.95 ± 0.035	0.925 ± 0.013	0.913 ± 0.0099	0.88 ± 0.038	0.901 ± 0.05
UniProt Q96JK2 and related entries	1.18 ± 0.092	1.15 ± 0.088	1.07 ± 0.066	1.13 ± 0.08	1.14 ± 0.1	1.03 ± 0.095	1.09 ± 0.07	1.01 ± 0.071
DPF2 (UniProt Q92785)	1.013 ± 0.0027	1.1 ± 0.058	1.1 ± 0.046	1.14 ± 0.1	1.14 ± 0.14	1.16 ± 0.15	1.2 ± 0.18	1.19 ± 0.22
UniProt Q92804 and related entries	0.976 ± 0.03	1.048 ± 0.0095	1.18 ± 0.09	1.35 ± 0.14	1.56 ± 0.22	1.73 ± 0.28	2.08 ± 0.35	2.59 ± 0.54
UniProt Q93074 and related entries	1.15 ± 0.053	1.11 ± 0.068	1.18 ± 0.098	1.26 ± 0.12	1.35 ± 0.22	1.33 ± 0.21	1.35 ± 0.23	1.33 ± 0.21
TMEM263 (UniProt Q8WUH6)	0.916 ± 0.011	0.868 ± 0.033	0.963 ± 0.037	0.913 ± 0.04	0.903 ± 0.092	0.882 ± 0.03	0.908 ± 0.041	0.916 ± 0.034
GMPPA (UniProt Q96IJ6)	1.03 ± 0.028	1.04 ± 0.079	0.992 ± 0.041	0.967 ± 0.054	0.999 ± 0.048	0.972 ± 0.067	0.95 ± 0.03	0.937 ± 0.046
TRUB1 (UniProt Q8WWH5)	0.98 ± 0.017	0.959 ± 0.026	0.963 ± 0.059	0.938 ± 0.054	0.926 ± 0.052	0.925 ± 0.076	0.91 ± 0.065	0.894 ± 0.051
UniProt Q92766 and related entries	1.02 ± 0.033	1.05 ± 0.029	1.11 ± 0.056	1.09 ± 0.069	1.12 ± 0.093	1.12 ± 0.031	1.17 ± 0.12	1.17 ± 0.11
UniProt Q92552 and related entries	1.09 ± 0.062	1.15 ± 0.15	1.21 ± 0.19	1.27 ± 0.23	1.29 ± 0.26	1.23 ± 0.25	1.25 ± 0.28	1.17 ± 0.27
ISL2 (UniProt Q96A47)	1.09 ± 0.037	1.1 ± 0.045	1.17 ± 0.023	1.1 ± 0.063	1.08 ± 0.086	1.06 ± 0.13	1.03 ± 0.017	1.13 ± 0.015
DNAJA3 (UniProt Q96EY1)	1.04 ± 0.016	1.05 ± 0.082	1.11 ± 0.11	1.17 ± 0.069	1.26 ± 0.12	1.25 ± 0.12	1.28 ± 0.14	1.28 ± 0.11
TFB1M (UniProt Q8WVM0)	1.11 ± 0.096	1.12 ± 0.18	1.01 ± 0.03	1.17 ± 0.19	1.177 ± 0.0012	1.27 ± 0.17	1.32 ± 0.22	1.27 ± 0.17
CORO2A (UniProt Q92828)	1.08 ± 0.12	1.09 ± 0.11	1.11 ± 0.049	1.19 ± 0.047	1.31 ± 0.056	1.42 ± 0.075	1.42 ± 0.1	1.42 ± 0.058
MUL1 (UniProt Q969V5)	1.19 ± 0.079	1.1 ± 0.059	1.21 ± 0.033	1.06 ± 0.032	1.05 ± 0.019	1.08 ± 0.046	1.05 ± 0.03	0.979 ± 0.016
LTV1 (UniProt Q96GA3)	1.05 ± 0.11	1.06 ± 0.12	1.17 ± 0.14	1.16 ± 0.11	1.12 ± 0.16	1.09 ± 0.12	1.08 ± 0.17	1.08 ± 0.21
UniProt Q93100 and related entries	1.14 ± 0.1	1.16 ± 0.14	1.15 ± 0.14	1.17 ± 0.18	1.19 ± 0.2	1.16 ± 0.18	1.21 ± 0.17	1.07 ± 0.16
SUCLG2 (UniProt Q96I99)	0.959 ± 0.049	0.966 ± 0.053	0.933 ± 0.043	0.901 ± 0.06	0.889 ± 0.059	0.889 ± 0.052	0.886 ± 0.048	0.871 ± 0.068
UniProt Q92900 and related entries	1.01 ± 0.025	1.01 ± 0.04	0.936 ± 0.034	0.971 ± 0.065	0.957 ± 0.049	0.937 ± 0.057	0.898 ± 0.035	0.884 ± 0.011
PRPF31 (UniProt Q8WWY3)	1.01 ± 0.072	1.06 ± 0.057	1.06 ± 0.073	1.06 ± 0.11	1.07 ± 0.081	1.11 ± 0.077	1.1 ± 0.048	1.18 ± 0.092
ELP4 (UniProt Q96EB1)	1.11 ± 0.035	1.07 ± 0.025	1.06 ± 0.023	1.1 ± 0.072	1.08 ± 0.077	1.08 ± 0.075	1.08 ± 0.089	1.05 ± 0.059
CCDC51 (UniProt Q96ER9)	1.08 ± 0.094	1.07 ± 0.034	1.17 ± 0.091	1.05 ± 0.048	1.14 ± 0.067	1.11 ± 0.051	1.06 ± 0.084	1.07 ± 0.058
FAF2 (UniProt Q96CS3)	0.971 ± 0.097	0.967 ± 0.11	0.905 ± 0.056	0.885 ± 0.076	0.911 ± 0.055	0.876 ± 0.065	0.866 ± 0.061	0.873 ± 0.059
UniProt Q96K58 and related entries	0.983 ± 0.033	0.943 ± 0.074	1 ± 0.042	0.9476 ± 0.0083	0.938 ± 0.1	0.964 ± 0.019	0.939 ± 0.059	0.9641 ± 9.1e-05

Only NP40-soluble protein abundance (concentration: 10mM) and NP40-soluble protein abundance (concentration: 6mM), for some of the entries so far:
Target,NP40-soluble protein abundance (concentration: 10mM),NP40-soluble protein abundance (concentration: 6mM)
Sirt1 (UniProt Q96EB6),0.964 ± 0.027,0.956 ± 0.056
UniProt Q8WVQ1 and related entries,0.927 ± 0.097,0.898 ± 0.026
